From PubChem BioAssay AID540256 (National Center for Advancing Translational Sciences (NCATS), 2011)
The whole screen tested about 300,000 compounds, of which about 3,700 (1.2%) were called active. The inconclusive results got no clear call from the source; some entries with a clear call stand among them for comparison. The call rests on the fitted dose curve; tested in HEK293 cells. Potencies of inconclusive entries are doubtful fits and often do not repeat.

assay: qHTS for Inhibitors of binding or entry into cells for Lassa Virus; conditions: Lassa virus pseudotype entry inhibition, cell reporter; series mostly up to 37.9 µM; further: nearly all actives have a fitted effect of over 50% in size
Potency means the concentration at half of the fitted maximal effect.

| Compound | Potency |
| --- | --- |
| Cn1nnc2c(N3CCCCC3)ncnc21 | inconclusive: 6.31 µM [inhibitor, single point] |
| CCCCCCCCCCC[C@@H]1C[C@H]2C=CCO[P@@](=O)(O1)O2 | inconclusive: 0.888 µM [inhibitor, full curve, poor fit] |
| COc1ccc(CNC(=O)C(=O)NCCC2CCCCN2S(=O)(=O)c2ccccc2)cc1 (centres undefined) | inconclusive: 35.5 µM [inhibitor, single point] |
| O=C(CCNS(=O)(=O)c1cccs1)Nc1ccccc1F | inactive |
| COc1ccccc1NC(=O)c1ccccc1NC(=O)c1ccccc1 | inconclusive: 22.4 µM [inhibitor, partial curve, poor fit] |
| O=C(CN(c1ccc(F)cc1)S(=O)(=O)c1ccc2c(c1)OCCO2)NCc1ccccc1 | inconclusive: 5.17 µM [inhibitor, partial curve, poor fit] |
| c1ccc(CNC2=NCCS2)cc1 | inactive |
| O=C(N/N=C/c1cnc(N2CCCCC2)s1)c1ccc(Cl)cc1 | inconclusive: 20.6 µM [inhibitor, single point] |
| CCCN(CC1CC1)c1nc(C)nc(Nc2c(Cl)cc(Cl)cc2Cl)c1Cl | inconclusive: 10.3 µM [inhibitor, partial curve] |
| O=C(Nc1ccc(-c2cn3c(n2)SCC3)cc1)c1ccc2ccccc2n1 | inconclusive: 35.5 µM [inhibitor, single point] |
| COCc1c(C(=O)OCC(=O)NCCN2C(=O)CSC2=O)oc2ccccc12 | inconclusive: 15.8 µM [activator, partial curve, poor fit] |
| CNC(=O)CSc1nnc(-c2cc(C)cc(C)c2)o1 | inconclusive: 2.59 µM [inhibitor, partial curve, poor fit] |
| FC(F)(F)c1cnc(NNC(=S)Nc2ccccc2Cl)c(Cl)c1 | inconclusive: 20 µM [inhibitor, single point] |
| COc1ccc2cc(CNc3ccc(C)cc3)c(=O)n(CC(=O)Nc3ccc(OC)c(Cl)c3)c2c1 | inactive |
| O=c1cc(-c2cccs2)oc2ccc(Cl)cc12 | inconclusive: 20.6 µM [activator, single point] |
| CCOc1cc(/C=C(\C#N)C(N)=O)ccc1OS(=O)(=O)c1ccccc1 | inactive |
| Cc1cccc(N2CCN(C(=O)NC(C)c3ccc(F)c(F)c3)CC2)c1C (centres undefined) | inconclusive: 1.26 µM [inhibitor, full curve, poor fit] |
| CCCc1nnc(SCC(=O)N2CCOCC2)n1Cc1ccco1 | inconclusive: 7.94 µM [activator, partial curve, poor fit] |
| COc1cc(OC)c(NC(=O)C2=C(C)C(=O)OC23CCCCC3)cc1Cl | inactive |
| COc1ccccc1CNC(=O)c1cc(Sc2cccc(Cl)c2)nc2ccccc12 | inconclusive: 20 µM [inhibitor, partial curve, poor fit] |
| CCN(CC)C(=O)CSc1nc2sc3c(c2c(=O)n1CCCOC)CCC3 | inactive |
| NC(=O)SCC(=O)Nc1cccc(Cl)c1 | inconclusive: 22.4 µM [inhibitor, single point] |

| Compound | Potency |
| --- | --- |
| CCCOc1ccc(-c2nnc(N)s2)cc1 | inactive |
| Cc1ccc(N/C=C(/C#N)c2ccsc2)cc1C | inconclusive: 35.5 µM [inhibitor, single point] |
| CC1=C(C(N)=O)C(c2cccc(F)c2)n2nc(SCc3ccccc3)nc2N1 (centres undefined) | inactive |
| CCCNC(=O)c1ccccc1NS(=O)(=O)c1ccc(OC)c(OC)c1 | inactive |
| O=c1[nH]c(=O)c2nc3c4ccccc4c4ccccc4c3nc2[nH]1 | inconclusive: 5.62 µM [inhibitor, single point] |
| S=C1NCN(Cc2ccco2)CN1 | inconclusive: 2.51 µM [activator, full curve, poor fit] |
| Cc1c(C#N)c(N)nc2c3c(sc12)NC(=O)CC3c1ccc(Cl)cc1 (centres undefined) | inconclusive: 10 µM [inhibitor, partial curve, poor fit] |
| CN1c2ccc(Cl)cc2-c2nc(SCC(=O)Nc3cc(F)ccc3F)ncc2S1(=O)=O | inconclusive: 5.62 µM [inhibitor, full curve, poor fit] |
| Cc1ccc2oc(C(=O)N(Cc3ccc(N(C)C)cc3)C3CCS(=O)(=O)C3)c(C)c2c1 (centres undefined) | inconclusive: 7.08 µM [inhibitor, full curve] |
| CCOc1ccc(CCNc2ncnc3onc(-c4ccc(F)cc4)c23)cc1OCC | inconclusive: 6.31 µM [inhibitor, partial curve, poor fit] |
| OCc1cnc(SCc2cccc(F)c2)n1Cc1ccc(F)cc1 | inactive |
| O=C(Nc1cccc(Cl)c1)c1ccc2nc(Cc3ccccc3)oc2c1 | inconclusive: 28.2 µM [inhibitor, single point] |
| COc1ccc(C(=O)Nc2ccc(S(=O)(=O)N3CCCCC3)cc2)cc1 | inactive |
| CN(C)c1oc(COc2ccccc2F)nc1C#N | inconclusive: 18.3 µM [activator, single point] |
| CC1CCN(Cc2nnc(-c3cccc(Br)c3)o2)CC1 | inactive |
| Cc1ccc(NC(=O)CSc2nn(-c3ccccc3)c(=S)s2)cc1S(=O)(=O)N(C)C | inconclusive: 10.3 µM [inhibitor, partial curve] |
| O=C(CN1CCN(c2cccc(C(F)(F)F)c2)CC1)NCc1ccccc1 | active: 8.91 µM |
| O=C(CCc1nc(-c2ccccc2F)no1)NC1CCCCCC1 | inconclusive: 2 µM [inhibitor, partial curve, poor fit] |
| Cc1cccc(N=Nc2c(N)n[nH]c2-c2ccc(Cl)cc2)c1 | inactive |
| CCn1c(SCc2cccc(C)c2)nnc1-c1ccc(C)cc1 | inconclusive: 23.1 µM [inhibitor, single point] |
| Cc1ccccc1-n1c(SCC(=O)N/N=C/c2c(C)nn(-c3ccccc3)c2C)nc2ccccc2c1=O | inconclusive: 18.4 µM [inhibitor, partial curve] |
| O=C(CCCOc1ccc(Cl)cc1Cl)Nc1cc(S(=O)(=O)N2CCOCC2)ccc1N1CCOCC1 | inconclusive: 14.1 µM [inhibitor, single point] |

Given as tab-separated lines: entries from further up.
Compound	Potency
CC1=C(C(N)=O)C(c2cccc(F)c2)n2nc(SCc3ccccc3)nc2N1 (centres undefined)	inactive
O=C(CCc1nc(-c2ccccc2F)no1)NC1CCCCCC1	inconclusive: 2 µM [inhibitor, partial curve, poor fit]
